PMC5939050
Results are given in words; binding and its absence hold for the method and conditions named. Some entries that bind do so weakly or less than the wild type.

By UniProt entry, the sequences of proteins in these tests, tags left out. Residues count along the entry.
UniProt Q00609, residues 38-306: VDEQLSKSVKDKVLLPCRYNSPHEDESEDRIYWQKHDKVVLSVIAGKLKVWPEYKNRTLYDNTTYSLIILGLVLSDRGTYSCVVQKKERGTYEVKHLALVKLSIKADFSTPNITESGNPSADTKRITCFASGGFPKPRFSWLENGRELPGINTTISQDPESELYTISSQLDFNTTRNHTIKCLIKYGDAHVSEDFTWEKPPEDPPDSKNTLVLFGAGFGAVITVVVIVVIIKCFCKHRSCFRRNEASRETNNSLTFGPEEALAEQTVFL
UniProt P10747, residues 19-152: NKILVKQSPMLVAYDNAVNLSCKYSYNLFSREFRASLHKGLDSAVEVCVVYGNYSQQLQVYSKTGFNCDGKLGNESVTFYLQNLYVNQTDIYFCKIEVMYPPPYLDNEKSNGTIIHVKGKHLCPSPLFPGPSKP

Target: B7-1 on J558 cells (UniProt Q00609)
Assay: flow cytometry on cells; J558-B7 cells with biotinylated CD28-Fc (20 μg/ml) in the presence of unlabeled CTLA-4-Fc (5 μg/ml) and graded anti-CTLA-4 mAbs or control IgG-Fc; only the binder purified

- binding: binds
Substance: CD28-Fc (from UniProt P10747 19-152) (Fc fusion)
